Measurements reported in PubChem BioAssay AID686938 (Drosophila RNAi Screening Center, 2013).

- Purpose: 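Looking for CRAC channel components and the factors controlling them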 (primary screen)
- Cells: Drosophila S2R+ cells
- Knock-down reagent: long dsRNA against Drosophila genes, about 0.25 µg dsRNA per well, roughly 10,000 cells
- Time to read-out: 5 days of knock-down before the calcium assay
- Conditions: thapsigargin (SERCA pump blocker) to empty calcium stores; entry signal taken 4 min after adding it
- Read-out: 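Per-well fluo-4 fluorescence in two replicates, unnormalised, measured in resting cells and 4 min after store depletion by the SERCA blocker thapsigargin; ratio of the two present in few wells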
- Direction: calcium entry signal: higher = stronger calcium signal after store depletion; entry to resting ratio: higher = more calcium entry relative to resting level; resting calcium signal: higher = higher resting calcium signal
- Hit rule: 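Called when the plate z-score of the entry-to-rest ratio, mean of duplicates, falls below −3; wells with low overall dye signal (Fmax z below −2) or more than five off-targets excluded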
- Calls: active = strongly reduced calcium entry; inactive = no strong reduction
The deposit covers about 23,000 reagents; this is a random part of those that have a named target and a result. Over the whole deposit, 75 (0.33%) are marked active. 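Raw plate signals without normalisation; calls rest on plate z-scores that were not deposited; ratio present for only 364 wells.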 Reagents against one gene are numbered here. A plus sign joins genes that one reagent is predicted to hit. Reagent sequences are not shown. The record does not give: the dose of the treatment.

target	reagent	calcium entry signal, replicate 1 (fluorescence units)	calcium entry signal, replicate 2 (fluorescence units)	entry to resting ratio	resting calcium signal, replicate 1 (fluorescence units)	resting calcium signal, replicate 2 (fluorescence units)	call
CG9269	1	3.46e7	3.82e7		1.59e7	3.87e6	inactive
CR32745 (pseudo)	1	3.06e7	3.66e7		1.44e7	1.84e7	inactive
lush	1	2.71e7	4.66e7		1.34e7	1.96e7	inactive
mthl12 (methuselah-like 12)	1	2.45e7	3.41e7		1.22e7	1.40e7	inactive
GstT2 (Glutathione S transferase T2)	1	3.91e7	4.68e7		1.92e7	2.23e7	inactive
CG3511	1	3.65e7			1.80e7		inactive
CG6726	1	4.99e7	4.97e7		2.42e7	2.06e7	inactive
CG5500	1	3.43e7	4.88e7		1.81e7	2.10e7	inactive
CG14011	1	2.70e7	2.63e7		1.38e7	1.33e7	inactive
CG34325	1	3.34e7	2.95e7		1.78e7	1.52e7	inactive
CG34325	2	3.55e7	3.59e7		1.78e7	1.61e7	inactive
CG6304	1	3.22e7			1.83e7		inactive
GNBP2 (Gram-negative bacteria binding protein 2)	1	3.75e7	4.89e7		1.69e7	3.21e7	inactive
CG8187	1	2.67e7	2.81e7		1.22e7	1.37e7	inactive
dan (distal antenna)	1	3.87e7	3.64e7		1.92e7	1.46e7	inactive
ci (cubitus interruptus)	1	5.47e7	5.77e7	2.2	2.45e7	2.25e7	inactive
CG6839	1	3.60e7	4.12e7		1.62e7	2.92e7	inactive
alpha-Man-Ia (alpha-Mannosidase class I a)	1	3.29e7	3.97e7		1.58e7	2.02e7	inactive
alpha-Man-Ia (alpha-Mannosidase class I a)	2	3.86e7	3.73e7		1.74e7	1.63e7	inactive
alpha-Man-Ia (alpha-Mannosidase class I a)	3	3.38e7	3.23e7		1.74e7	1.59e7	inactive
alpha-Man-Ia (alpha-Mannosidase class I a)	4	4.33e7	3.55e7		1.96e7	1.61e7	inactive
alpha-Man-Ia (alpha-Mannosidase class I a)	5	6.31e7	3.03e7		2.84e7	1.26e7	inactive
Pms2	1	2.73e7	1.98e7		1.15e7	9.55e6	inactive
Pde11 (Phosphodiesterase 11)	1	7.13e7	3.36e7		3.14e7	1.70e7	inactive
Pde11 (Phosphodiesterase 11)	2	3.52e7	3.56e7		1.84e7	1.56e7	inactive
CG1309	1	5.81e7	3.71e7		3.78e7	1.58e7	inactive
HSPC300 (Haematopoietic stem/progenitor cell protein 300)	1	4.63e7	3.15e7		2.26e7	1.40e7	inactive
CG18467	1	4.04e7	3.78e7		1.69e7	1.73e7	inactive
CG14983	1	3.83e7	4.98e7		1.94e7	2.24e7	inactive
ND-42 (NADH dehydrogenase (ubiquinone) 42 kDa subunit)	1	3.38e7	3.24e7		1.73e7	1.46e7	inactive
mRpS26 (mitochondrial ribosomal protein S26)	1	3.89e7	6.89e7		1.72e7	2.82e7	inactive
CG17636	1	4.09e7	4.38e7		2.05e7	1.94e7	inactive
CG9682	1	4.53e7	5.63e7		2.05e7	2.57e7	inactive
QIL1	1	2.03e7	3.56e7		1.21e7	1.88e7	inactive
pnr (pannier)	1	3.20e7	2.44e7		1.64e7	1.27e7	inactive
GXIVsPLA2	1	3.82e7	5.03e7		1.78e7	3.43e7	inactive
CG13751	1	2.61e7	3.52e7		1.40e7	1.56e7	inactive

Continued, starting with the last 9 of the part before.
target	reagent	calcium entry signal, replicate 1 (fluorescence units)	calcium entry signal, replicate 2 (fluorescence units)	entry to resting ratio	resting calcium signal, replicate 1 (fluorescence units)	resting calcium signal, replicate 2 (fluorescence units)	call
CG14983	1	3.83e7	4.98e7		1.94e7	2.24e7	inactive
ND-42 (NADH dehydrogenase (ubiquinone) 42 kDa subunit)	1	3.38e7	3.24e7		1.73e7	1.46e7	inactive
mRpS26 (mitochondrial ribosomal protein S26)	1	3.89e7	6.89e7		1.72e7	2.82e7	inactive
CG17636	1	4.09e7	4.38e7		2.05e7	1.94e7	inactive
CG9682	1	4.53e7	5.63e7		2.05e7	2.57e7	inactive
QIL1	1	2.03e7	3.56e7		1.21e7	1.88e7	inactive
pnr (pannier)	1	3.20e7	2.44e7		1.64e7	1.27e7	inactive
GXIVsPLA2	1	3.82e7	5.03e7		1.78e7	3.43e7	inactive
CG13751	1	2.61e7	3.52e7		1.40e7	1.56e7	inactive
AIMP3 (aaRS-interacting multifunctional protein 3)	1	3.59e7	4.19e7		1.85e7	1.82e7	inactive
CkIIbeta (Casein kinase II beta subunit)	1	3.44e7	4.66e7		1.77e7	2.49e7	inactive
ADD1 (ADD domain-containing protein 1)	1	3.27e7	3.21e7		1.38e7	1.63e7	inactive
CG1971	1	3.00e7	3.91e7		1.39e7	1.96e7	inactive
CG5347	1	3.52e7	3.03e7		1.86e7	1.42e7	inactive
CG13361	1	5.19e7	4.10e7	2.3	2.30e7	1.89e7	inactive
Or24a (Odorant receptor 24a)	1	2.39e7	2.43e7		1.27e7	1.19e7	inactive
Ccs (Copper chaperone for superoxide dismutase)	1	2.80e7	3.75e7		1.43e7	1.72e7	inactive
CG15356	1	2.85e7	2.60e7		1.40e7	1.23e7	inactive
CG34299	1	3.67e7	4.34e7		1.58e7	2.18e7	inactive
CG9231	1	2.71e7	3.70e7		1.17e7	2.54e7	inactive
GCS2alpha (Glucosidase 2 alpha subunit)	1	5.47e7	3.75e7		2.71e7	1.87e7	inactive
Rpe (Ribulose-5-phosphate-3-epimerase)	1	2.47e7	2.02e7		1.04e7	1.05e7	inactive
CG31268	1	3.33e7	3.73e7		1.90e7	1.69e7	inactive
Ip259 (Intronic Protein 259)	1	2.56e7			1.52e7		inactive
MRP (Multidrug-Resistance like Protein 1)	1	1.37e8			4.97e7		inactive
CG10591	1	3.66e7	2.45e7		2.56e7	1.04e7	inactive
CG42505 + CG42504 + CG31358	1	2.77e7	4.08e7		1.31e7	1.74e7	inactive
CG42505 + CG42504 + CG31358	2	3.55e7	1.84e7		1.67e7	9.84e6	inactive
CG42505 + CG42504 + CG31358	3	3.29e7	2.66e7		1.59e7	1.41e7	inactive
CG31313	1	2.07e7	2.83e7		1.07e7	1.36e7	inactive
Hml (Hemolectin)	1	3.19e7	3.85e7		1.70e7	1.55e7	inactive
CG15025	1	4.52e7	4.42e7		6.34e7	2.26e7	inactive
Rip11 (Rab11 interacting protein)	1	3.55e7	3.29e7		1.65e7	1.49e7	inactive
CG31650	1	3.90e7	3.32e7		2.19e7	1.67e7	inactive
Mlp84B (Muscle LIM protein at 84B)	1	4.10e7	3.08e7		2.12e7	1.42e7	inactive
CG32196	1	3.30e7	4.28e7		1.52e7	2.06e7	inactive
Optix	1	2.87e7	5.80e7		1.48e7	3.14e7	inactive
Optix	2	3.21e7	3.16e7		1.42e7	1.49e7	inactive
Optix	3	3.41e7	4.44e7		1.59e7	2.45e7	inactive
squ (squash)	1	2.03e7	3.23e7		1.20e7	1.48e7	inactive
CG4041	1	3.47e7	4.28e7		1.80e7	2.18e7	inactive
CG2972	1	2.87e7	2.97e7		1.51e7	1.55e7	inactive
nonA-l (nonA-like)	1	3.01e7	4.44e7		1.39e7	5.23e7	inactive
Spn28Db (Serpin 28Db)	1	3.16e7	5.67e7		1.41e7	2.55e7	inactive
Pdzd8 (PDZ domain containing 8)	1	3.40e7	5.08e7		1.56e7	2.33e7	inactive
Tsp42Ed (Tetraspanin 42Ed)	1	2.73e7	1.95e7		1.27e7	1.05e7	inactive
CG10597	1	3.34e7	4.25e7		1.79e7	1.90e7	inactive
